Source: PMC9119314 (Frontiers in Pharmacology, 2022)

Key:
[1] = system: DNA; design: method as in Onyeibor et al., 2005; settings: values below 5°C indicate non-specific binding to DNA; ref Onyeibor et al., 2005; cited from earlier work
[2] = system: P. falciparum K1; assay: In vitro antiplasmodial activity, P. falciparum K1 (lactate dehydrogenase assay); assay type: cell-based, Plasmodium falciparum; settings: relative to 1
Experimental: P. falciparum (K1 clone) was maintained in human erythrocytes prepared from the donated blood samples (blood groups unknown, Ethical Tissue, University of Bradford), suspended in the RPMI 1640 medium as previously described ([Wright et al., 2001]), except that serum was replaced with Albumax II, [5% (^w/v)]. […] Twofold serial dilutions were made in 96-well microtiter plates in duplicate, and infected erythrocytes were added to give a final volume of 100 µL with 2.5% hematocrit and 1% parasitemia. Chloroquine diphosphate was used as a positive control, and uninfected and infected erythrocytes without compounds were included in each test. The plates were placed into a modular incubator; gassed with 93% nitrogen, 3% oxygen, and 4% carbon dioxide; and incubated at 37°C for 48 h. The parasite growth was assessed by measuring lactate dehydrogenase activity as described by [Makler et al. (1993)]. The reagent used contained the following in each mL: acetylpyridine adenine dinucleotide (APAD), 0.74 mg; lithium lactate, 19.2 mg; diaphorase, 0.1 mg; Triton X-100, 2 μL; nitroblue tetrazolium, 1 mg; and phenazine ethosulphate, 0.5 mg. Fifty microliter of this reagent was added to each well and mixed; plates were incubated for 15 min at 37°C. The optical densities were read at 550 nm using an Azure 96-well microplate reader (Azure Biosystems Inc.), and % inhibition of growth was calculated by comparison with the control values. IC50 values were determined using linear regression analysis (Microsoft Excel). A minimum of three separate determinations was carried out for each compound.

SMILES: Cn1c2c3ccccc3nc-2cc2ccccc21 [Compound 1, cryptolepine]
- ΔTm (DNA thermodenaturation) [1]: 9 °C

SMILES: C[n+]1c2ccccc2cc2[n-]c3ccc(Br)cc3c21 [Compound 3, 7-Bromocryptolepine]
- Fold more potent than 1 against P. falciparum K1 [2]: 1.8-3 fold

SMILES: C[n+]1c2ccccc2cc2[n-]c3ccc(I)cc3c21 [Compound 5, 7-iodocryptolepine]
- Fold more potent than 1 against P. falciparum K1 [2]: 1.8-3 fold

SMILES: C[n+]1c2ccccc2cc2[n-]c3c(I)cc(I)cc3c21 [Compound 6, 7,9-diiodocryptolepine]
- Fold more potent than 1 against P. falciparum K1 [2]: 1.8-3 fold

Some ranges recur; such a range may be that of the whole group of compounds.
